Results reported in US6579881B2 (Eisai Co., Ltd., priority 1997, dated 2003).
Counter-ions that a name gives are not always drawn.

Biological target: α1 adrenalin receptor
Test: Binding test on [3H] prazosin (α1 adrenalin receptor)
Settings: [3H] prazosin about 0.2 nM, receptor fraction of rat cerebral cortex
Experimental: (1) Binding Test on Serotonin 1A, Serotonin 2 and α1 Adrenalin Receptors
These compounds and test compounds, when insoluble in water, were dissolved in ethanol and then diluted with distilled water so as to each give an ethanol concentration of 10%. Methysergide maleate was dissolved in distilled water before using.
Use was made of SD rats aged 6 to 8 weeks.
The rats were sacrificed by dcapitation to extirpate the cerebra. The hippocampus and cortex were separated therefrom and employed in the binding tests respectively on the serotonin 1A receptor and the serotonin 2 receptor.
The hippocampus was mixed with 50 times (on the wet weight basis) as much a 0.32 M sucrose solution while the cortex was mixed with 10 times as much the same solution. Each mixture was homogenized by using a Teflon glass homogenizer and centrifuged at 1,000×g for 10 min. […]
Next, it was filtered through a glass filter with the use of a cell harvester. After washing the glass filter with 50 mM Tris hydrochloride (pH 7.4), the radioactivity of the receptor was measured with a liquid scintillation counter. The binding detected in the presence of 10 μM of phentolamine was referred to as the nonspecific binding.
Subsequently, the abilities of typical examples of the compounds of the present invention to bind to the α1 adrenalin receptor were evaluated by the test method described above.

- Ki: 1900 nM
SMILES: CN1CCC(=C2c3ccccc3C=Cc3ccccc32)CC1 [Cyproheptadine, cyproheptadine hydrochloride, reference compound]
